In PubChem BioAssay AID720504 (National Center for Advancing Translational Sciences (NCATS), 2013):
About 10,000 (2.8%) of roughly 360,000 compounds were called active. The inconclusive results got no clear call from the source; some entries with a clear call stand among them for comparison. Calls follow the shape of the dose curve; as a rule, active = well fitted inhibition curve with a large enough effect; inconclusive = small, poorly fitted or top-dose-only effect; inactive = flat fitted curve, though single readings scatter. Where the call is inconclusive, the potency comes from a doubtful curve fit.

By UniProt entry, the sequences of proteins in these tests, tags left out.
UniProt P53350, whole entry, looked up: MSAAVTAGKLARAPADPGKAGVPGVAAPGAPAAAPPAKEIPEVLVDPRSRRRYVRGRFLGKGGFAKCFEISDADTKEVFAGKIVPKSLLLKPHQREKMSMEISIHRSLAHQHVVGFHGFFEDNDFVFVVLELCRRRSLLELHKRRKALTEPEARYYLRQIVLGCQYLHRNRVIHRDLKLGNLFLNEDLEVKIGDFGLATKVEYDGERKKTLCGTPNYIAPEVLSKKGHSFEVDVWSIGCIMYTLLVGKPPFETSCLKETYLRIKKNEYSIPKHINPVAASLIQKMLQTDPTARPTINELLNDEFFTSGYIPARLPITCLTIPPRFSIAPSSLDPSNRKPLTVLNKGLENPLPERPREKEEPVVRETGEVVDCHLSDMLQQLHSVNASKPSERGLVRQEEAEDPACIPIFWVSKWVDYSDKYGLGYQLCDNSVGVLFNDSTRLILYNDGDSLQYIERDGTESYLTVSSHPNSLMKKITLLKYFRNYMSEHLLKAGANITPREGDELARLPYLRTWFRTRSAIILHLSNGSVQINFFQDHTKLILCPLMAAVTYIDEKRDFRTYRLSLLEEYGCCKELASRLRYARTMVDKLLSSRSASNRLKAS

target: Serine/threonine-protein kinase PLK1 (Homo sapiens) (UniProt P53350); assay: qHTS for Inhibitors of PLK1-PDB (polo-like kinase 1 - polo-box domain): Primary Screen; details: Plk1 PBD binding of FITC phosphopeptide, fluorescence polarization; also: nearly all actives have a fitted effect of over 65% in size; as to max response, negative = inhibition: series mostly up to about 57 µM
% is scaled to controls: 0 for no effect and ±100 for the full control effect; potency is read from the fitted curve at half-maximal effect.

Row | SMILES | Potency | max response, negative = inhibition
1 | CC(C)(C)N=Cc1c(O)ccc2oc3c(c12)CCCC3 | inconclusive: 8.44 µM [inhibitor, partial curve] | 
2 | CC(=O)Oc1cccc(N2C(=O)c3cccc4c([N+](=O)[O-])ccc(c34)C2=O)c1 | inconclusive: 75.2 µM [inhibitor, partial curve] | 
3 | CCC1(C)Cc2c(sc3nn[nH]c(=O)c23)CO1 (centres undefined) | active: 21.2 µM | 
4 | COc1ccccc1N/C(N)=N/c1nc(CSc2ccc(C)cc2)cc(=O)[nH]1 | inconclusive: 26.7 µM [inhibitor, partial curve] | 
5 | O=C(COC(=O)CCSc1ccccc1)Nc1ccc(F)cc1Cl | inconclusive: 33.6 µM [inhibitor, partial curve] | 
6 | COCCNC(=O)C1(C)CCN(C(=O)c2cccc(C)c2C)C1 (centres undefined) |  | inactive: -4.24%
7 | CCC1SC(=NC(=O)c2ccc(Cl)c(Cl)c2)NC1=O (centres undefined) | inconclusive: 21.2 µM [inhibitor, partial curve] | 
8 | COc1ccc(NC(=O)Cn2c(=O)c(C)nc3ccccc32)cc1Cl |  | inactive: 11.1%
9 | CCCCCCCCCCC[N+](C)(C)CC/C=C1/c2ccccc2Sc2ccc(Cl)cc21 | inconclusive: 11.9 µM [inhibitor, partial curve] | 
10 | O=C1C(=O)N(CCN2CCOCC2)C(c2ccc([N+](=O)[O-])cc2)/C1=C(/O)c1ccc2c(c1)OCO2 (centres undefined) |  | inconclusive: -31.3% [inhibitor]
11 | CC(=O)c1ccc(OCC(=O)OCC(=O)Nc2sccc2C(N)=O)cc1 |  | inactive: 1.43%
12 | COc1ccc(C(C)=O)cc1CON=C1CSCc2ccccc21 | inconclusive: 26.7 µM [inhibitor, single point] | 
13 | COc1ccccc1C(=O)Nc1ccc2c(c1)n(C)c(=O)n2C |  | inactive: -2.51%
14 | O=C(c1ccc(Br)cc1)C(CN1CCOCC1)c1ccccc1 (centres undefined) | inconclusive: 26.7 µM [inhibitor, partial curve] | 
15 | CCOC(=O)CNC(=S)N(Cc1ccco1)Cc1ccccc1Cl | inconclusive: 23.8 µM [inhibitor, partial curve] | 
16 | CCc1nc2ccccc2c(=O)n1/N=C/c1ccc(OC)cc1 |  | inactive: 6.12%
17 | COCc1cc(C)nc(SCc2ccc(F)cc2)c1C#N | active: 23.8 µM | 
18 | CC(=O)Nc1ccc(SCCN2CC[C@@H](C)CCC2=O)cc1 | active: 26.7 µM | 
19 | O=C1C2CCCN2C(c2ccc(Cl)cc2)N1c1nccs1 (centres undefined) | inconclusive: 26.7 µM [inhibitor, single point] | 
20 | CCN(CC)S(=O)(=O)c1cccc(NC(=O)COC(=O)/C=C/c2ccco2)c1 |  | inactive: -5.58%
21 | O=C(CSc1nc2c(cnn2-c2ccccc2)c(=O)[nH]1)N1CCOCC1 | active: 13.4 µM | 
22 | CC1CCCC(n2cnc3cc(C(=O)O)ccc32)C1C (centres undefined) | inconclusive: 16.8 µM [inhibitor, partial curve] | 
23 | Cc1cc(C)c(S(=O)(=O)N/N=C/c2ccc([N+](=O)[O-])o2)c(C)c1 | inconclusive: 21.2 µM [inhibitor, partial curve] | 
24 | CC(=O)N1CCN(C(=S)c2ccc(Cl)cc2)CC1 | active: 21.2 µM | 
25 | N#CC1=C(N)C2=CCCC[C@H]2[C@H](c2ccc(Br)cc2)C1(C#N)C#N | inconclusive: 26.7 µM [inhibitor, single point] | 

Row | SMILES | Potency | max response, negative = inhibition
26 | O=C(CSc1nnc(-c2cccc(F)c2)o1)NC1CCCC1 |  | inactive: 0.515%
27 | CC(=O)Nc1ccc(NC(=O)c2cccc(Oc3ccccc3)c2)cc1 | inconclusive: 26.7 µM [inhibitor, partial curve] | 
28 | N#Cc1c(-c2ccc(Cl)cc2)c2c([nH]c1=O)-c1ccccc1OC2 | inconclusive: 26.7 µM [inhibitor, partial curve] | 
29 | CC(=O)N1N=C(c2ccccc2)CC1c1ccc(F)cc1 (centres undefined) |  | inactive: -10.3%
30 | COc1cccc2sc3cc(NCc4ccc(C)o4)ccc3c(=O)c12 |  | inactive: -8.72%
31 | COc1ccc(-n2c(C)nc(=O)c(-c3ccccc3)c2C)cc1 | inconclusive: 23.8 µM [inhibitor, partial curve] | 
32 | Cc1cc(C)n2nc(SCC(N)=O)nc2n1 | inconclusive: 9.47 µM [inhibitor, partial curve] | 
33 | CCCn1nnc(NC(=O)c2ccc(-c3cccc(Cl)c3)o2)n1 |  | inactive: -7.27%
34 | CCCCS(=O)(=O)/C=C\C=C/S(=O)(=O)CCCC | active: 15 µM | 
35 | COc1cc(C(=S)NC2CCCCC2)ccc1O | inconclusive: 9.47 µM [inhibitor, partial curve] | 
36 | CCOC(=O)c1ccc(NC(=O)CSc2ncccn2)cc1 | inconclusive: 23.8 µM [inhibitor, single point] | 
37 | CSc1nnc(-c2ccc([N+](=O)[O-])cc2)o1 | inconclusive: 21.2 µM [inhibitor, partial curve] | 
38 | Cc1cc(=O)[nH]c2nnnn12 | active: 23.8 µM | 
39 | Cc1ccccc1S(=O)(=O)NC1OC(=O)C(Cl)=C1Cl (centres undefined) | inconclusive: 29.9 µM [inhibitor, single point] | 
40 | COc1ccc(CCNCC(O)Cn2c3ccccc3c3ccccc32)cc1OC (centres undefined) |  | inactive: 6.67%
41 | CCC(C)(C)NC(=O)c1cccc(NC(=O)C(C)C)c1 | active: 21.2 µM | 
42 | CC(=O)c1cccc(N=Cc2c(O)ccc3ccccc23)c1 | inconclusive: 37.7 µM [inhibitor, single point] | 
43 | Cc1ccc(C2=NC(=O)/C(=C/c3cc(O)c(O)c(Br)c3)S2)cc1 | inconclusive: 21.2 µM [inhibitor, partial curve] | 
44 | CCN1CCN(CCC(=O)Nc2ccccc2C)CC1 | inconclusive: 37.7 µM [inhibitor, single point] | 
45 | Cc1ccc(C(=O)CSc2nnc(-c3ccco3)n2C)cc1 | active: 5.97 µM | 
46 | C=CCn1c(=O)[nH]c2nc3cc(N=CN(C)C)c(C)cc3nc2c1=O | inconclusive: 8.44 µM [inhibitor, partial curve] | 
47 | Cc1ccc(S(=O)(=O)N(C(=O)c2ccncc2)c2ccc(OC(=O)c3ccncc3)c3ccccc23)cc1 | active: 9.47 µM | 
48 | COC(=O)C1=C(C)NC2=C(C(=O)CC(C)(C)C2)C1c1cnn(C)c1C (centres undefined) |  | inactive: 0.356%
49 | O=C(CN1CCN(Cc2ccc3c(c2)OCO3)CC1)Nc1ccc(F)cc1 |  | inactive: -3.51%
50 | CCCCCN(C(=O)CCC(=O)OCC(=O)c1c(C)cc(C)cc1C)c1c(N)n(CCCC)c(=O)[nH]c1=O |  | inactive: -1.3%

Looked up by structure from above:
Row | SMILES | Potency | max response, negative = inhibition
37 | CSc1nnc(-c2ccc([N+](=O)[O-])cc2)o1 | inconclusive: 21.2 µM [inhibitor, partial curve] | 
28 | N#Cc1c(-c2ccc(Cl)cc2)c2c([nH]c1=O)-c1ccccc1OC2 | inconclusive: 26.7 µM [inhibitor, partial curve] | 
45 | Cc1ccc(C(=O)CSc2nnc(-c3ccco3)n2C)cc1 | active: 5.97 µM | 
50 | CCCCCN(C(=O)CCC(=O)OCC(=O)c1c(C)cc(C)cc1C)c1c(N)n(CCCC)c(=O)[nH]c1=O |  | inactive: -1.3%
38 | Cc1cc(=O)[nH]c2nnnn12 | active: 23.8 µM | 
43 | Cc1ccc(C2=NC(=O)/C(=C/c3cc(O)c(O)c(Br)c3)S2)cc1 | inconclusive: 21.2 µM [inhibitor, partial curve] | 

More entries.

Row | SMILES | Potency | max response, negative = inhibition
51 | Cc1cc(C(=O)N2CCC2(C)C(=O)NCC(C)(C)C)nn1C (centres undefined) |  | inactive: -1.16%
52 | Oc1ccc(C[C@@H]2CNCCN2CCc2cc(C(F)(F)F)cc(C(F)(F)F)c2)cc1 |  | inactive: -7.83%
53 | CC(C)C1Nc2ccc(C(=O)O)cc2C2C=CCC21 (centres undefined) | inconclusive: 37.7 µM [inhibitor, single point] | 
54 | CCn1c(N)c(C(=O)NCC2CCCO2)sc1=S (centres undefined) | active: 4.74 µM | 
55 | COc1ccc(CCC(=O)N2CCCC(Nc3ccc(C)c(C)c3)C2)cc1OC (centres undefined) | inconclusive: 29.9 µM [inhibitor, single point] | 
56 | O=C1NC(=S)S/C1=C\c1ccc(SCc2ccccc2)o1 | active: 26.7 µM | 
57 | COCCNC(=S)N(Cc1cccs1)Cc1cc2cccc(C)c2[nH]c1=O |  | inactive: -2.22%
58 | COc1cccc(CNS(=O)(=O)c2cc(-c3cc(C)no3)ccc2C(C)C)c1 |  | inactive: -6.16%
59 | Clc1cccc(-c2sc(Nc3ccccc3)n[n+]2-c2ccccc2)c1Cl | inconclusive: 37.7 µM [inhibitor, single point] | 
60 | Cc1ccccc1NC(=O)CN1C(=O)S/C(=C\c2ccc(-c3cccc(C(=O)O)c3C)o2)C1=O | inconclusive: 26.7 µM [inhibitor, single point] | 
61 | C=CCNc1sc(C(=O)c2ccccc2)c(N)c1-c1nc2ccccc2s1 | active: 16.8 µM | 
62 | COc1ccc(N2CCN(C(=O)Cc3ccc(S(=O)(=O)N4CCOCC4)s3)CC2)cc1 | inconclusive: 26.7 µM [inhibitor, single point] | 
63 | COc1cc(/C=C2/C(=O)N(c3cccc(Br)c3)N=C2C)cc(OC)c1O | inconclusive: 29.9 µM [inhibitor, partial curve] | 
64 | COc1ccc(OC)c(-c2c(C#N)c(N)nc3c2c(=O)nc2sccn23)c1 | inconclusive: 26.7 µM [inhibitor, partial curve] | 
65 | Cc1nsc2nc3c(F)c(F)c(F)c(F)c3cc12 |  | inactive: -3.48%
66 | CCCCCc1ccc(-c2ccc(/C=C/C(=O)O)cc2)nc1 | inconclusive: 26.7 µM [inhibitor, single point] | 
67 | O=S(=O)(Nc1ccc(Nc2ccccc2)cc1)c1ccc(F)cc1 |  | inactive: -7.77%
68 | CC(C)C[C@H](NC(=O)C1CCN(S(=O)(=O)c2ccccc2)CC1)C(=O)NCc1ccncc1 | inconclusive: 21.2 µM [inhibitor, single point] | 
69 | O=C(O)COc1ccccc1/C=N/n1c(C2CCCCC2)n[nH]c1=S | inconclusive: 21.2 µM [inhibitor, partial curve] | 
70 | CCN1C(=O)S/C(=C/c2cn(C)c3ccccc23)C1=O |  | inactive: 1.46%
71 | CSc1ccc(CNC(=O)C2CCC(=O)N(CCc3ccc(Cl)cc3)C2)cc1 (centres undefined) |  | inactive: -2.78%
72 | O=C(CCCSc1nnc(SCCCC(=O)c2ccc(F)cc2)s1)c1ccc(F)cc1 |  | inactive: 0.258%
73 | O=C1CSC(=S)N1c1ccc(F)c(Cl)c1 | inconclusive: 23.8 µM [inhibitor, partial curve] | 
74 | CSCCC(C(=O)NC1=NCCS1)N1C(=O)c2ccccc2C1=O (centres undefined) | inconclusive: 21.2 µM [inhibitor, partial curve] | 
